Test results published in patent US9540654B2, “Synthetic brassica-derived chloroplast transit peptides” (Dow AgroSciences LLC, priority 2012, dated 2017).

Experiments:
DGT-28 protein [1] = assay: DGT-28 protein expression in corn by standard ELISA; set-up: species or system Zea mays
DGT-28 protein [2] = assay: DGT-28 protein in tobacco by standard ELISA

B1: DGT-28: EPSP synthase (GENBANK ZP_06917240.1) from Streptomyces sviceus ATCC29083; glyphosate tolerance gene and protein (protein)
chain: MRGMPALSLPGSKSITARALFLAAAADGVTTLVRPLRSDDTEGFAEGLVRLGYRVGRTPDTWQVDGRPQGPAVAEADVYCRDGATTARFLPTLAAAGHGTYRFDASPQMRRRPLLPLSRALRDLGVDLRHEEAEGHHPLTVRAAGVEGGEVTLDAGQSSQYLTALLLLGPLTRQGLRIRVTDLVSAPYVEITLAMMRAFGVEVAREGDVFVVPPGGYRATTYAIEPDASTASYFFAAAALTPGAEVTVPGLGTGALQGDLGFVDVLRRMGAEVSVGADATTVRGTGELRGLTANMRDISDTMPTLAAIAPFASAPVRIEDVANTRVKECDRLEACAENLRRLGVRVATGPDWIEIHPGPATGAQVTSYGDHRIVMSFAVTGLRVPGISFDDPGCVRKTFPGFHEAFAELRRGIGS
mean range of DGT-28 protein (ELISA) (DGT-28 protein [1]; T0 corn, across the constructs tested): 12.6-22.5 ng/cm^2 | range of mean DGT-28 protein expression (ELISA) (DGT-28 protein [1]; homozygous corn, single copy events tolerant to glyphosate): 27.5-65.8 ng/cm^2 | DGT-28 mean protein expression (ELISA) (DGT-28 protein [2]; T2 tobacco, simple (1-2 copy) lines across constructs): 72.8-114.5 ng/cm^2 | DGT-28 protein detection (ELISA) (DGT-28 protein [2]; all PCR positive T0 tobacco plants): detected in all PCR positive plants
